Source: patent US20250115633A1, “PHOTODYNAMIC THERAPY AND DIAGNOSIS” (RMW CHO Group Limited, priority 2021, published 2025)
Counter-ions that a name gives are not always drawn.

The molecules below were run on SKOV3 ovarian cancer cells (assay: Therapeutic index calculated using phototoxicity IC90 vs dark toxicity IC10).
Assay type: cell-based, Human

Molecule	Therapeutic Index
C=Cc1c(C)c2cc3nc(c(C)c4[nH]c(cc5nc(cc1[nH]2)C(C)=C5CC)c(C)c4C(=O)O)[C@@H](CCC(=O)O)[C@@H]3C [Chlorin e4 disodium, Chlorin e4 Disodium Salt, reference compound]	1.89
CCC1=C(C)c2cc3[nH]c(cc4nc(c(C)c5[nH]c(cc1n2)c(C)c5C(=O)OC)[C@@H](CCC(=O)OC)[C@@H]4C)c(C)c3C(C)OCCCS[C@@H]1O[C@H](CO)[C@@H](O)[C@H](O)[C@H]1O (stereo partly drawn) [Compound 1, methyl (7S,8S)-18-ethyl-7-(3-methoxy-3-oxopropyl)-2,5,8,12,17-pentamethyl-13-(1-(3-(((2S,3R,4S,5S,6R)-3,4,5-trihydroxy-6-(hydroxymethyl)tetrahydro-2H-pyran-2-yl)thio)propoxy)ethyl)-7H,8H-porphyrin-3-carboxylate]	144.00
CCC1=C(C)c2cc3[nH]c(cc4nc(c(C)c5[nH]c(cc1n2)c(C)c5C(=O)OC)[C@@H](CCC(=O)OC)[C@@H]4C)c(C)c3COC(=O)NCCCOCCC[P+](c1ccccc1)(c1ccccc1)c1ccccc1 [Compound 4, chlorin e4 dimethyl ester 13-(N-(3-(3-triphenylphosphoniumpropoxy)propyl)chloride)carbamate]	1,617.08
CCC1=C(C)c2cc3[nH]c(cc4nc(c(C)c5[nH]c(cc1n2)c(C)c5C(=O)OC)[C@@H](CCC(=O)OC)[C@@H]4C)c(C)c3COC(=O)NCCC[P+](c1ccccc1)(c1ccccc1)c1ccccc1 [Compound 5, chlorin e4 dimethyl ester 13-(N-(3-triphenylphosphoniumpropyl)bromide)carbamate]	1,050.34
CCC1=C(C)c2cc3[nH]c(cc4nc(c(C)c5[nH]c(cc1n2)c(C)c5C(=O)OC)[C@@H](CCC(=O)OC)[C@@H]4C)c(C)c3COC(=O)NCC[P+](c1ccccc1)(c1ccccc1)c1ccccc1 [Compound 6, chlorin e4 dimethyl ester 13-(N-(2-triphenylphosphoniumethyl)bromide)carbamate]	1,267.22
C=Cc1c(C)c2cc3nc(c(CC(=O)N[C@@H](CC(=O)O)C(=O)O)c4[nH]c(cc5nc(cc1[nH]2)C(C)=C5CC)c(C)c4C(=O)O)[C@@H](CCC(=O)O)[C@@H]3C [Talaporfin sodium, reference compound]	0.49
chlorin e4 13-hydroxymethyl dimethyl ester	131.87
chlorin e4 dimethyl ester 13-(6-(triphenylphosphonium bromide)hexyl)carbamate [Compound 3]	204.39
